Article PMC10235437
No constants are given. Whether binding was seen depends on the method and setting. Binding seen in cells or lysates may run through a third protein. These calls come from enrichment with a bait or labelling near it, and not all partners need be listed.

The chains behind the UniProt entries cited, without tags or fusion partners.
UniProt Q13951: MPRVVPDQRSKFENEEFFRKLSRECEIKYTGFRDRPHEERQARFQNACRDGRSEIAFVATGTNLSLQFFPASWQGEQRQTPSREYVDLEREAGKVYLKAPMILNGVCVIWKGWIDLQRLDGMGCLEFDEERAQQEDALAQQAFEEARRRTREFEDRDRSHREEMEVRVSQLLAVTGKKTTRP

Target: T1, E2F transcription factor 7 (E2F7), endogenous (human (endogenous in HONE-1 and SUNE-1)) (UniProt Q96AV8)
T1 sequence: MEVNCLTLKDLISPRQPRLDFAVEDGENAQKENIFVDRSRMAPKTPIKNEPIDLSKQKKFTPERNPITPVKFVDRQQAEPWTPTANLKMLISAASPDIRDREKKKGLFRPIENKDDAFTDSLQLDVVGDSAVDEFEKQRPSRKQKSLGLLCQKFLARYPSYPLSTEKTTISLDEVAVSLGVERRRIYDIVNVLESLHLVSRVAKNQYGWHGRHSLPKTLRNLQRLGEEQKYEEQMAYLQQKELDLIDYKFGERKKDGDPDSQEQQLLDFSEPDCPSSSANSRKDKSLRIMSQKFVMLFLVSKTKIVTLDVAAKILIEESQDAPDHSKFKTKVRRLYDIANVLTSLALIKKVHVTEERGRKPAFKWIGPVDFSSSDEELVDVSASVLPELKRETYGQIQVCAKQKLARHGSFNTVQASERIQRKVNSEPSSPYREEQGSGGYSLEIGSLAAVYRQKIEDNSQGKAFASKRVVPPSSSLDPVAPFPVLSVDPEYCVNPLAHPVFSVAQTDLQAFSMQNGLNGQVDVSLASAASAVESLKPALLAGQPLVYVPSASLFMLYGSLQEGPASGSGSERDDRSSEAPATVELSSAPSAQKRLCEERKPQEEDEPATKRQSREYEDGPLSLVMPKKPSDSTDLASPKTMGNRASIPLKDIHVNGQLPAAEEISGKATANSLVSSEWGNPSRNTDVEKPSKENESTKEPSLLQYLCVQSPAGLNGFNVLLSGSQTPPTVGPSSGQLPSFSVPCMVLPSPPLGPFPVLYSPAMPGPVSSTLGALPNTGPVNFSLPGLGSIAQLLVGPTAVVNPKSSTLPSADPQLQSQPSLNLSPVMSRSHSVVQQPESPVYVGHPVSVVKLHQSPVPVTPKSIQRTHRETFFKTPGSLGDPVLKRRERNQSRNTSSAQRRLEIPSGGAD
Experiment: affinity purification with mass spectrometry; E2F7 immunoprecipitated from HONE-1 cell lysate (Pierce Co-Immunoprecipitation Kit, 4 °C overnight), immunocomplexes analysed by mass spectrometry

“Core-binding factor subunit beta (CBFB), endogenous (from UniProt Q13951 1-182)” was tested, and the binding was “binds”.
